Test results taken from PubChem BioAssay AID1347075 (National Center for Advancing Translational Sciences (NCATS), 2019).
Screen size: about 400,000 compounds; about 5,500 (1.4%) were called active. Inconclusive means that the source gave no clear call. Such entries were picked first, then a sample of the others. Calls follow the shape of the dose curve; as a rule, active = well fitted cell-killing curve with a large enough effect; inconclusive = small, poorly fitted or top-dose-only effect, or effect the other way; inactive = flat fitted curve, though single readings scatter. Potencies of inconclusive entries are doubtful fits and often do not repeat.

Assay: qHTS assay for MDR1-selective chemotherapeutics: Primary screen using the parental adenocarcinoma cell KB-3-1; also: nearly all actives have a fitted effect of over 60% in size
Conditions: KB-3-1 viability, CellTiter-Glo ATP luminescence, 72 h; activity change, negative = cytotoxic: at 46.1 µM (top of the series)
How it was run: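 Using CellTiter-Glo luminescence, growth of non-resistant KB-3-1 adenocarcinoma cells is assessed 72 h after pin-tool compound addition at 37 °C. Normalized responses across the concentration series yield fitted curves.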
% is scaled to controls: 0 for no effect and ±100 for the full control effect; potency is read from the fitted curve at half-maximal effect.

Row | SMILES | Potency | activity change, negative = cytotoxic
1 | CCCCn1c(NC(=O)c2ccccc2)c(C#N)c2nc3ccccc3nc21 | inconclusive: 14.6 µM [cytotoxic, partial curve, poor fit] | 
2 | O=C(COC(=O)c1ccccc1)c1ccc(S(=O)(=O)N2CCCCC2)cc1 | inactive | 
3 | O=C(COc1ccc(F)cc1)NCCc1nc2ccccc2[nH]1 |  | inconclusive: 59.3%
4 | COc1ccc(OC)c(C2C(C#N)=C(N)Oc3c2c(C)nn3-c2cccc(Cl)c2)c1 (configuration not stated) | active: 23.1 µM | 
5 | CO/N=C/c1ccc(OC)c(Oc2nc(OC)cc(OC)n2)c1 | active: 18.4 µM | 
6 | COCCCNC(=O)c1ccc(Cn2c(=O)c3ccccc3n(Cc3ccccc3C#N)c2=O)cc1 | inconclusive: 16.4 µM [cytotoxic, partial curve, poor fit] | 
7 | Cc1cc(NC(=O)Cn2nc(-c3ccccc3F)ccc2=O)ccc1-n1cnnn1 | inconclusive: 29.1 µM [cytotoxic, single point] | 
8 | CCOC(=O)c1cc(-c2ccccc2)n(CCC(=O)Nc2nc3c(C)cccc3s2)c1C | inconclusive: 23.1 µM [cytotoxic, single point] | 
9 | CCOC(=O)[C@]12CCC=C1N(Cc1ccc(Cl)cc1Cl)C(=O)[C@H](CC(=O)N1CCSCC1)C2 | inconclusive: 20.6 µM [cytotoxic, single point] | 
10 | N#C/C(=C/c1ccc(-c2ccc([N+](=O)[O-])cc2)o1)C(=O)Nc1nc(-c2cccs2)cs1 | inactive | 
11 | CCCCc1cc(-c2n[nH]c(=S)o2)c2ccccc2n1 | inconclusive: 23.1 µM [cytotoxic, single point] | 
12 | O=C(Nc1sc2c(c1C(=O)O)CCCCC2)c1ccco1 | inconclusive: 23.1 µM [cytotoxic, single point] | 
13 | Cc1ccc(NC(=O)C2(C)CCN2C2Cc3ccccc3C2)cc1 (configuration not stated) | inactive | 
14 | Cc1ccccc1NS(=O)(=O)c1ccc2[nH]c3c(c2c1)CCCCC3 | inconclusive: 23.1 µM [cytotoxic, single point] | 
15 | Cc1cc(C)c2nc(NC(=O)C3CSC4(C)CCC(=O)N34)sc2c1 (configuration not stated) | inactive | 
16 | O=C(Nc1nc2ccccc2s1)C1CCN(C(=O)c2ccco2)CC1 | inconclusive: 23.1 µM [cytotoxic, single point] | 
17 | CCN(CC)CCn1c(=N)n(CCOc2ccccc2)c2ccccc21 | inconclusive: 3.98 µM [cytotoxic, full curve] | 
18 | CCC(=NCc1ccc(Cl)c(Cl)c1)c1nc(-c2ccco2)oc1O | inactive | 
19 | Cc1cccc(/C=C2\Sc3ccc(C(=O)NCC4CCCO4)cc3N(C)C2=O)c1 (configuration not stated) | inactive | 
20 | O=C(N/N=C/c1cc(Cl)cc([N+](=O)[O-])c1O)c1ccc2c(c1)OCO2 | inconclusive: 29.1 µM [cytotoxic, single point] | 
21 | CCN1CCN(c2cc(-c3ccccc3)nc3cc(-c4cccc(F)c4)nn23)CC1 | inconclusive: 29.1 µM [cytotoxic, single point] | 
22 | Cc1cc(-c2ccccc2)nc(N/N=C/c2ccc(O)cc2)n1 | active: 20.6 µM | 
23 | FC(F)(F)c1ccc(/C=N/NC(=S)NC2CCCCC2)cc1 | inactive | 
24 | CC(=O)N1c2c(cc(Br)cc2S(=O)(=O)N2CCN(c3ccccc3)CC2)CC1C (configuration not stated) | inactive | 

Row | SMILES | Potency | activity change, negative = cytotoxic
25 | COc1ccc2c(c1)[nH]c1c(=O)n(Cc3ccco3)cnc12 | inconclusive: 0.731 µM [cytotoxic, full curve, poor fit] | 
26 | Cc1ccc(-c2cc3c(N4CCN(c5cc(C)ccc5C)CC4)nccn3n2)cc1 | inconclusive: 18.4 µM [cytotoxic, single point] | 
27 | O=C(CCc1ccccc1)Nc1nnc(-c2ccc3c(c2)CCCC3)o1 | inconclusive: 18.4 µM [rising, partial curve, poor fit] | 
28 | O=C(NCc1ccc(F)cc1F)[C@@H]1CCCN1C(=O)[C@@H]1CCCN1C(=O)c1ccccc1 |  | inconclusive: 18.7%
29 | CCOC(=O)C1=C(C)NC(C)=C(C(=O)OCC)C1C(=O)OCC(=O)Nc1ccc(NC(C)=O)cc1 | inactive | 
30 | C=C(C)CNC(=S)N/N=C(\C)c1ccc(OC)cc1 | inconclusive: 16.4 µM [cytotoxic, partial curve, poor fit] | 
31 | CC(=O)c1cccc(NC(=O)C(C)n2c(=O)cc(-c3ccccc3)c3c(C)nn(C)c32)c1 (configuration not stated) | inactive | 
32 | CCn1c(=O)c(C(=O)Nc2ccccn2)c(O)c2ccccc21 | inconclusive: 23.1 µM [cytotoxic, single point] | 
33 | Cc1cc(C)c(C(=O)COC(=O)c2cccc(S(=O)(=O)N3CCOCC3)c2)cc1C | inactive | 
34 | C[C@@H]1COC(=O)[C@@H](CC(=O)OC(C)(C)C)C/C=C\C[C@H](CC(=O)NCCO)C(=O)N1 | inactive | 
35 | CCC(=O)Nc1cc(-c2nnc(OC)c3ccccc23)ccc1N1CCOCC1 | inactive | 
36 | Cc1cc(-c2cccs2)c2c(n1)sc1c(=O)[nH]c(=O)[nH]c12 | inactive | 
37 | Cc1cc(NC(=O)CCC(=O)N(C(C(=O)NC(C)(C)C)c2ccccc2Cl)C(C)(C)C)no1 (configuration not stated) | inconclusive: 20.6 µM [cytotoxic, single point] | 
38 | COc1ccc(-c2ccc(C(=O)NCc3ccc(C(F)(F)F)cc3)c3occc23)c(C)c1 | inactive | 
39 | NS(=O)(=O)c1ccc(N/N=C/c2cn(-c3ccccc3)nc2-c2ccccc2)c([N+](=O)[O-])c1 | inconclusive: 25.9 µM [cytotoxic, single point] | 
40 | CC(C(=O)Nc1ccon1)N1C(=O)c2ccccc2S1(=O)=O (configuration not stated) | inconclusive: 29.1 µM [rising, single point] | 
41 | Cc1ccc(-n2ncc3c(NCc4cccnc4)ncnc32)cc1C | inconclusive: 16.4 µM [cytotoxic, single point] | 
42 | CCOC(=O)C1CCN(C(=O)CSc2n[nH]c(-c3ccc(F)cc3)n2)CC1 | inactive | 
43 | COC(=O)N/N=C/c1cn(CC(C)COc2ccccc2)c2ccccc12 (configuration not stated) | inconclusive: 29.1 µM [cytotoxic, single point] | 
44 | CC(C)(C)S(=O)(=O)c1cnc2c(-c3ccc(Cl)cc3)cnn2c1N | inconclusive: 20.6 µM [cytotoxic, single point] | 
45 | CCC(C)NCCCOc1c(C)cc(C)cc1Br (configuration not stated) | inactive | 
46 | c1ccc(-c2cc3nc(NCC4CC4)nc(NCC4CCCCC4)c3s2)cc1 | inconclusive: 29.1 µM [cytotoxic, single point] | 
47 | Cc1cc(OCC(=O)Nc2nccs2)c2c(C)cc(=O)oc2c1 | inactive | 
48 | Cc1cc(/C=N/n2cnnc2)c(C)n1-c1cccc(Cl)c1 | inactive | 

Nothing new here: entries from further up.
Row | SMILES | Potency | activity change, negative = cytotoxic
22 | Cc1cc(-c2ccccc2)nc(N/N=C/c2ccc(O)cc2)n1 | active: 20.6 µM | 
23 | FC(F)(F)c1ccc(/C=N/NC(=S)NC2CCCCC2)cc1 | inactive | 

The results go on.

Row | SMILES | Potency | activity change, negative = cytotoxic
49 | CCN1CCN(C(=O)c2ccc3c(c2)N(Cc2ccccc2F)C(=O)c2ccccc2S3=O)CC1 (configuration not stated) | inactive | 
50 | O=[N+]([O-])c1cc(-c2nnc(Nc3ccc(O)cc3)c3ccccc23)ccc1N1CCOCC1 | inconclusive: 4.11 µM [cytotoxic, partial curve] | 
51 | C[n+]1ccc(/C=C/c2ccc(Br)cc2)cc1 | inconclusive: 20.6 µM [cytotoxic, single point] | 
52 | CCc1nc2ccc(C(=O)NCCCN3CCCC3=O)cn2c1N(CC)CCN(C)C |  | inconclusive: -0.332%
53 | O=C(NC(NC(=S)Nc1ccc(Cl)c(Cl)c1)C(Cl)(Cl)Cl)c1ccco1 (configuration not stated) | inconclusive: 23.1 µM [cytotoxic, single point] | 
54 | COc1ccc2c(c1)cc(C(=O)N[C@@H](Cc1ccccc1)C(=O)O)n2C | inactive | 
55 | Cc1ccc(NS(=O)(=O)c2ccc(C(=O)N3CCN(c4ncccn4)CC3)cc2)cc1 | inconclusive: 14.6 µM [cytotoxic, partial curve] | 
56 | Cc1ccc(-c2cccc(C3CC=CC4C3C(=O)N(Cc3ccccc3)C4c3cc(C)ccc3F)c2)cc1 (configuration not stated) | active: 20.6 µM | 
57 | C#CC(=O)N(c1cc(OC)ccc1OC)C(C(=O)NC1CCCC1)c1cccs1 (configuration not stated) | active: 14.6 µM | 
58 | COc1ccc(-n2cccc2/C=C/[N+](=O)[O-])cc1 | inconclusive: 14.6 µM [cytotoxic, single point] | 
59 | O=C(CCSc1nnc2scc(-c3ccccc3)n12)Nc1nc(-c2ccccc2)ns1 | inactive | 
60 | COC(=O)C1=C(C)N(Cc2ccccc2)C(=NCCc2cccnc2)N[C@H]1c1ccc(Br)cc1 | inconclusive: 16.4 µM [cytotoxic, single point] | 
61 | CCOC(=O)c1ccc(NC2=CC(=O)C(=O)c3ccccc32)cc1 | inconclusive: 20.6 µM [cytotoxic, single point] | 
62 | CC(C)(C)c1ccc(-c2nc(N)nc(N)n2)cc1 | inactive | 
63 | CC(=O)c1ccc(N2CCN(C(=O)c3cc4c(s3)-c3ccccc3OC4)CC2)cc1 | inactive | 
64 | COc1ccc(CNc2ccc(S(N)(=O)=O)cc2)c(OC)c1OC | inactive | 
65 | COc1ccc(NC(=O)CSc2nc(-c3ccccc3)[nH]c2-c2ccccc2)cc1OC | inconclusive: 9.2 µM [cytotoxic, partial curve] | 
66 | Cc1ccc(S(=O)(=O)Nc2cccc(-n3cnnn3)c2)cc1C(=O)O | inconclusive: 0.0073 µM [rising, full curve] | 
67 | O=C1C(=NO)CCc2ccccc21 | inconclusive: 29.1 µM [cytotoxic, single point] | 
68 | COc1ccccc1CNc1nc(NC(C)C)nc2cc(-c3ccccc3)sc12 | inconclusive: 29.1 µM [cytotoxic, single point] | 
69 | N#Cc1sc2nc(N3CCCCC3)c3c(c2c1N)CCCC3 | inconclusive: 23.1 µM [cytotoxic, partial curve] | 
70 | COc1cc(CNCCCN2CCOCC2)cc(Br)c1OCc1ccc(Cl)cc1 | inconclusive: 29.1 µM [cytotoxic, single point] | 
71 | COc1ccc(C2c3ccc4ccccc4c3Oc3ncn(CCO)c(=N)c32)cc1 (configuration not stated) | inactive | 
72 | Cc1ccc(Sc2ncccc2COC(=O)Nc2ccccc2)cc1 | inconclusive: 23.1 µM [cytotoxic, partial curve, poor fit] | 
